Values from PubChem BioAssay AID1259315 (Drosophila RNAi Screening Center, 2017).
Aim: 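Fly genes whose loss alters cell survival under toxic zinc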 (primary screen). Cells: Drosophila S2R+ cells. Reagent: long dsRNA against Drosophila genes. Time to read-out: 5 days (4 days knock-down, then 1 day with zinc). Challenge: zinc chloride added to 15 mM final for 1 day. Measurement: 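Luminescent measure of total cellular ATP as a survival proxy, read after 4 days of knock-down plus 1 day in 15 mM zinc chloride; z-score averaged across two replicate plates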. Reading the numbers: mean ATP z-score: higher = more ATP, more cells surviving zinc. Hit rule: 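a reagent is active if its z-score lies beyond 1.5 in either direction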.
The deposit covers 418 reagents; this is an unselected part. 17 of all reagents (4.1%) count as active. 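z-scores average two replicate plates; all hits raised ATP and none lowered it.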 Reagent sequences are not shown. Not given: the amount of reagent.

Depletion of Vps13B [DRSC15060] gave: mean ATP z-score -0.307; inactive. With knock-down of Vps13B [DRSC34131], the screen gave mean ATP z-score -0.21; inactive. For Xpd [DRSC27757], the values are mean ATP z-score -0.0521; inactive. Against Xpd [DRSC36088], the entry reads mean ATP z-score -0.129; inactive. With knock-down of Xpd [DRSC41045] the results were mean ATP z-score -0.0852; inactive. Against Npc2b [DRSC15464], the entry reads mean ATP z-score 0.268; inactive.

Knock-down of Idh [DRSC10779] gave: mean ATP z-score -0.216; inactive. Idh [DRSC34441] gave mean ATP z-score -0.166; inactive. After knock-down of Idh [DRSC34442], the record shows mean ATP z-score 0.0848; inactive. Depletion of Tsp39D [DRSC03099] gave: mean ATP z-score -0.138; inactive. Against Tsp39D [DRSC40050], the values are mean ATP z-score -0.385; inactive. beta-Man [DRSC12208] gave mean ATP z-score 0.207; inactive.

For beta-Man [DRSC12209], the entry reads mean ATP z-score -0.0372; inactive. With knock-down of CG14777 [DRSC18563], the record shows mean ATP z-score -0.0612; inactive. Depletion of CG14777 [DRSC40040] came out at: mean ATP z-score -0.355; inactive.

Not a retest: entries from further up.
Vps13B [DRSC15060] | mean ATP z-score = -0.307; outcome = inactive
Vps13B [DRSC34131] | mean ATP z-score = -0.21; outcome = inactive
